Reference: patent publication US20230148152A1, “METHOD OF SYNTHESIZING SINGLE-STRANDED NUCLEOTIDE SEQUENCE, BLOCKED NUCLEOSIDE TRIPHOSPHATES AND RELATED METHODS” (Agency for Science, Technology and Research, priority 2019, published 2023)

Test system: terminal deoxynucleotidyl transferase (TdT)
Experiment: Evaluation of reversibility of reversible terminators (incorporation, capping, deprotection, elongation)
Format: biochemical

Cc1cn([C@H]2C[C@H](OCCC#N)[C@@H](COP(=O)(O)OP(=O)(O)OP(=O)(O)O)O2)c(=O)[nH]c1=O [CE-dTTP, 2-cyanoethyl ether (CE)-dTTP]
removal of the removable terminating group (3′-OH retrieved) (CE removal: 30% NH4OH, 80° C. for 1 h, FIG. 13 and FIG. 14): successful

Cc1cn([C@H]2C[C@H](OC(=O)OCCSSC(C)(C)C)[C@@H](COP(=O)(O)OP(=O)(O)OP(=O)(O)O)O2)c(=O)[nH]c1=O [DT-dTTP, disulfide carbonate (DT)-dTTP]
removal of the removable terminating group (DT removal: 0.1 M DTT solution for 1 h, FIG. 15): successful
